Results published in US20080187577A1 (University of Texas, published 2008).
These are yes or no findings as the source states them, for the method shown. Binding seen in cells or lysates may run through a third protein. Binding calls can cover weak binding; strength is not graded here.

How the values were obtained:
[1] = target: recombinant Annexin II; assay: in vitro co-immunoprecipitation, Western blot and coomassie blue (FIG. 4B)
[2] = target: recombinant Annexin II; assay: co-immunoprecipitation in vitro (FIG. 4B)

- binding [1]: binds
- binding [2]: binds
B1: full-length recombinant human PG1-80 (rhPG) (ligand)
chain: SWKPRSQQPDAPLGTGANRDLELPWLEQQGPASHHRRQLGPQGPPHLVADPSKKQGPWLEEEEEAYGWMDFGRRSAEDEN
notes: Expressed in E. coli from pET32 as a thioredoxin fusion and purified; also called recombinant human progastrin; progastrin
